From the supplement of paper PMC11060735 come the findings set out here.

Several values for one entry are separate records, joined by “and”; a condition that tells them apart may be missing. Equal entries are not always repeated. Structures can show the parent of a compound that is named as a salt. ± gives the standard deviation of the averaged measurements. Over roughly 1,800 compounds, “GFP- (p16Ink4a-) cell count relative to negative-control wells” has its median near 0.99; the lowest 2% begin near 0.5. The list shows a part of the results.

The test system of this experiment is mouse p16Ink4a+/- lung fibroblasts (INKBRITE, bleomycin-injured). Nature of the experiment: GFP- (p16Ink4a-) cell count relative to negative-control wells (fold of vehicle); higher = more p16Ink4a- cells surviving. Conditions: 1 µM; 3 days.
For `CN(C)CC/C=C1/c2ccccc2Sc2ccc(Cl)cc21` [Chlorprothixene], the GFP- stood at 0.99.
As for `Cn1c(Nc2ccc(C(F)(F)F)cc2)nc2cc(Oc3ccnc(-c4nc(C(F)(F)F)c[nH]4)c3)ccc21`, the GFP- turned out to be 0.691.
With `O=c1ccn([C@@H]2O[C@H](CO)[C@@H](O)[C@H]2O)c(=O)[nH]1` [Uridine] the figure was 0.961; with `OC[C@@H](O)[C@@H](O)[C@@H](O)CO` [Ribitol], 0.997; with `CCN(CC)CCCC(C)Nc1nc(C)cc(Nc2ccc3nc(C)cc(N)c3c2)n1` (stereo unspecified), 0.971.
With `Cc1cc(OCCCS(C)(=O)=O)cc(C)c1-c1cccc(COc2ccc3c(c2)OC[C@H]3CC(=O)O)c1` the figure was 1.12.
With `C1=C/COCc2cc(ccc2OCCN2CCCC2)Nc2nccc(n2)-c2cccc(c2)COC/1` [Pacritinib] the figure was 0.933 ± 0.029; with `COCC(=O)NC/C=C/c1ccc2ncnc(Nc3ccc(Oc4ccc(C)nc4)c(C)c3)c2c1`, 1.06.
Compound `Cc1c(C(=O)N2CCOc3ccc(-c4ccc(N)nc4)cc3C2)ccc(S(C)(=O)=O)c1F` came in with a GFP- of 0.901.
With `CCc1c(C(=O)NCCc2ccc(N3CCCCC3)cc2)[nH]c2ccc(Cl)cc12` the figure was 0.784; with `O=C1CCC[C@@H]2[C@H]3CCC[N+]4([O-])CCC[C@@H](CN12)[C@@H]34` (stereo partly specified) [Oxymatrine], 1.08; with `Cc1ccc(C(=O)Nc2ccc(CN3CCN(C)CC3)c(C(F)(F)F)c2)cc1C#Cc1cnc2cccnn12` [Ponatinib], 0.714.
With `CC(=O)c1cc([N+](=O)[O-])c(Sc2cccc(Cl)c2Cl)s1` the figure was 1.02; with `O=C(NCCO[N+](=O)[O-])c1cccnc1` [Nicorandil], 1.14; with `NC(=O)C(c1ccccc1)(c1ccccc1)[C@@H]1CCN(CCc2ccc3c(c2)CCO3)C1` [Darifenacin], 1.18.
The result for `Cc1[nH]c2ccccc2c1CCNC(=O)c1cccs1` [N-[2-(2-methyl-1H-indol-3-yl)ethyl]thiophene-2-carboxamide] reads 1.11.
`Cc1cc(/C=C/C#N)cc(C)c1Nc1ccnc(Nc2ccc(C#N)cc2)n1` [Rilpivirine] displayed a GFP- of 1.12.
The result for `COc1c(N2CCNC(C)C2)c(F)cc2c(=O)c(C(=O)O)cn(C3CC3)c12` (stereo unspecified) [Gatifloxacin] reads 1.05; that for `C=CCN1CCCC1CNC(=O)c1cc2nn[nH]c2cc1OC` (stereo unspecified) [Alizapride], 1.02; that for `COc1ccccc1S(=O)(=O)Nc1ccc2c(c1)CN(C)C(=O)N2`, 1.15 ± 0.081.
As for `O=C(NC[C@H](O)CO)c1ccncc1Nc1ccc(I)cc1F` [Pimasertib], the GFP- turned out to be 1.03.
The result for `c1cn2cc(-c3ccc4c[nH]nc4c3)nc(Nc3ccc(N4CCOCC4)cc3)c2n1` reads 0.938.
In the case of `O=c1c(O)c(-c2ccc(O)c(O)c2)oc2cc(O)ccc12` [Fisetin], the GFP- turned out to be 1.01.
With `C[C@@H](NCCc1ccc(O)cc1)[C@@H](O)c1ccc(O)cc1` [Ritodrine HCl] the figure was 1.1.
With `CO[C@H]1/C=C/O[C@@]2(C)Oc3c(C)c(O)c4c(O)c(c(/C=N/N5CCN(C6CCCC6)CC5)c(O)c4c3C2=O)NC(=O)/C(C)=C\C=C\[C@H](C)[C@H](O)[C@@H](C)[C@@H](O)[C@@H](C)[C@H](OC(C)=O)[C@@H]1C` [Rifapentine] the figure was 0.995; with `CCN1CCN(Cc2ccc(Nc3ncc(F)c(-c4cc(F)c5nc(C)n(C(C)C)c5c4)n3)nc2)CC1`, 0.983; with `CC[C@]1(O)C[C@@H]2CN(CCc3c([nH]c4ccccc34)[C@@](C(=O)OC)(c3cc4c(cc3OC)N(C)[C@@H]3C45CCN4CC=C[C@](CC)([C@H]45)[C@@H](OC(C)=O)[C@]3(O)C(=O)OC)C2)C1` (stereo partly specified) [Vinblastine], 0.635.
`CC[C@H](C)C(=O)O[C@H]1CCC=C2C=C[C@H](C)[C@H](CC[C@@H]3C[C@@H](O)CC(=O)O3)[C@H]21` [Mevastatin] gave a GFP- of 0.766.
With `NC(=O)Cc1cccc(C(=O)c2ccccc2)c1N` [Nepafenac] the figure was 1.08; with `Cc1onc(-c2c(Cl)cccc2Cl)c1C(=O)N[C@@H]1C(=O)N2[C@@H]1SC(C)(C)[C@@H]2C(=O)O` [Dicloxacillin], 0.966.
With `C=C1CC[C@H](O)C/C1=C/C=C1\CCC[C@]2(C)[C@@H]([C@H](C)/C=C/[C@H](C)C(C)C)CC[C@@H]12` [Ergocalciferol] the figure was 1.06; with `Cn1cnc2c(F)c(Nc3ccc(Br)cc3Cl)c(C(=O)NOCCO)cc21` [Selumetinib], 0.838; with `O=C(O)c1cc(N=Nc2ccc(S(=O)(=O)Nc3ccccn3)cc2)ccc1O` [Sulfasalazine], 1.15.
`CCCCC(=O)N(Cc1ccc(-c2ccccc2-c2nn[nH]n2)cc1)[C@H](C(=O)O)C(C)C` [Valsartan] registered a GFP- of 1.02.
In turn, `O=C(c1ccc(C(=O)N2CCC(N3CCCC3)CC2)c(Nc2ccccc2)c1)N1CCC(N2CCCC2)CC1` returned a GFP- of 0.967 ± 0.073.
The result for `Nc1ncn([C@H]2C[C@H](O)[C@@H](CO)O2)c(=O)n1` [Decitabine] reads 0.814 ± 0.15.
The result for `CN(C)C(=O)COC(=O)Cc1ccc(OC(=O)c2ccc(NC(=N)N)cc2)cc1` [Camostat] reads 1.14; that for `CC(C)CC(N)=O` [Isovaleramide], 0.963; that for `Cc1[nH]c2ccccc2c1CCNCc1ccc(/C=C/C(=O)NO)cc1` [Panobinostat], 0.50294 ± 0.0002.
With `COCCCOc1cc(C[C@@H](C[C@H](N)[C@@H](O)C[C@H](C(=O)NCC(C)(C)C(N)=O)C(C)C)C(C)C)ccc1OC` [Aliskiren] the figure was 1.09.
`CC[C@H](C)[C@H]1O[C@]2(CC[C@@H]1C)C[C@@H]1C[C@@H](C/C=C(\C)[C@@H](O[C@H]3C[C@H](OC)[C@@H](O[C@H]4C[C@H](OC)[C@@H](O)[C@H](C)O4)[C@H](C)O3)[C@@H](C)/C=C/C=C3\CO[C@@H]4[C@H](O)C(C)=C[C@@H](C(=O)O1)[C@]34O)O2` [Ivermectin] gave a GFP- of 1.2.
With `CN(C)CC(c1ccc(O)cc1)C1(O)CCCCC1` (stereo unspecified) [Desvenlafaxine] the figure was 0.752 and 0.898.
The result for `CC(NC(=O)c1ccccc1/N=C/c1c(O)ccc2ccccc12)c1ccccc1` (stereo unspecified) [Sirtinol] reads 1.09 ± 0.21; that for `O=c1n(CCCN2CCN(c3cccc(Cl)c3)CC2)nc2ccccn12` [Trazodone], 0.97; that for `CN(c1ncccc1CNc1nc(Nc2ccc3c(c2)CC(=O)N3)ncc1C(F)(F)F)S(C)(=O)=O`, 0.683 and 0.793 and 0.91.
For the compound `Nc1cc(F)ccc1NC(=O)/C=C/c1cnn(C/C=C/c2ccccc2)c1`, the GFP- was determined as 0.781 ± 0.051.
Take `COc1cc2c(Nc3ccc(NC(=O)c4ccccc4)cc3)ncnc2cc1OCCCN1CCOCC1`: the GFP- was determined as 0.93618 ± 0.00011.
With `CN1CCN(c2c(F)cc3c(=O)c(C(=O)O)cn4c3c2OCN4C)CC1` [Marbofloxacin] the figure was 1.07; with `O=C(Nc1ccncc1)c1cc([N+](=O)[O-])ccc1Cl`, 1.1.
With `NS(=O)(=O)c1cc2c(cc1Cl)NC=NS2(=O)=O` [Chlorothiazide] the figure was 0.98; with `O=C(Nc1ccc2c(=O)cc(-c3nn[nH]n3)oc2c1)c1ccc(OCCCCc2ccccc2)cc1` [Pranlukast], 0.993.
`NS(=O)(=O)c1cc(C(=O)O)c(NCc2ccco2)cc1Cl` [Furosemide] yielded a GFP- of 0.93.
With `CNS(=O)(=O)Cc1ccc2[nH]cc(CCN(C)C)c2c1` [Sumatriptan] the figure was 1.12.
The result for `C#Cc1cccc(Nc2ncnc3cc(OC)c(OCCCCCCC(=O)NO)cc23)c1` reads 1.01 ± 0.091.
Compound `Cn1cc(-c2[nH]c3cc(NC(=O)[C@H](N)C4CCCCC4)cc4c3c2C=NNC4=O)cn1` yielded a GFP- of 1.06.
Compound `CCn1cc(-c2ccnc3[nH]c(-c4cccc(CN(C)C)c4)cc23)c(-c2ccc(NC(=O)N(C)C)cc2)n1` came in with a GFP- of 0.658 ± 0.17.
The result for `COc1ccc(/C=C/C(=O)Nc2ccccc2C(=O)O)cc1OC` [Tranilast] reads 0.875; that for `CC(C)(C)c1cnc(CSc2cnc(NC(=O)C3CCNCC3)s2)o1`, 1.05; that for `CN(C)C(=O)c1cc2cnc(Nc3ccc(N4CCNCC4)cn3)nc2n1C1CCCC1` [Ribociclib], 0.995.
In the case of `COc1cccc2c1C(=O)c1c(O)c3c(c(O)c1C2=O)C[C@@](O)(C(C)=O)C[C@@H]3O[C@H]1C[C@H](N)[C@H](O)[C@H](C)O1` [Daunorubicin], the GFP- stood at 0.754.
With `c1ccc(CNc2nc(NCc3ccccc3)c3ccccc3n2)cc1` the figure was 0.94.
With `CC(C)NC[C@@H](C(=O)N1CCN(c2ncnc3c2[C@H](C)C[C@H]3O)CC1)c1ccc(Cl)cc1` the figure was 0.865; with `COc1ccc2cccc(CCNC(C)=O)c2c1` [Agomelatine], 0.973; with `Cn1cc(-c2cnn3c(N)c(Br)c([C@@H]4CCCNC4)nc23)cn1`, 0.988.
The result for `O=C(NCCCNc1nc(Nc2cccc(NC(=O)N3CCCC3)c2)ncc1I)c1cccs1` reads 0.707; that for `Cc1ncc([N+](=O)[O-])n1CC(O)CCl` (stereo unspecified) [Ornidazole], 1.14.
`Cc1cc([C@@H](C)Nc2ccccc2C(=O)O)c2nc(N3CCOCC3)cc(=O)n2c1` gave a GFP- of 0.724.
With `OCCOCCN1CCN(C2=Nc3ccccc3Sc3ccccc32)CC1` [Quetiapine] the figure was 0.855.
`Cc1cc(C#N)cc(C)c1Oc1nc(Nc2ccc(C#N)cc2)nc(N)c1Br` [Etravirine] registered a GFP- of 1.15.
The result for `COc1ccc2cc(-c3[nH]c(-c4ccc(S(C)=O)cc4)nc3-c3ccncc3)ccc2c1` (stereo unspecified) [Tie2 kinase inhibitor] reads 1.05; that for `COc1cc2c(Oc3ccc(NC(=O)C4(C(=O)Nc5ccc(F)cc5)CC4)cc3F)ccnc2cc1OCCCN1CCOCC1` [Foretinib], 0.62; that for `CCOc1cc(N)c(Cl)cc1C(=O)NCC1CN(Cc2ccc(F)cc2)CCO1` (stereo unspecified) [Mosapride, Mosapride Citrate], 1.11.
The result for `OC[C@@H](O)CN1CCN(c2ccccc2)CC1` [Levodropropizine] reads 1.05; that for `C[C@H](Cn1cnc2c(N)ncnc21)OCP(=O)(O)O` [Tenofovir], 1.2.
With `COc1ccc2c(c1)c(CC(=O)N1CCOCC1)c(C)n2C(=O)c1ccc(Cl)cc1` the figure was 1.15.
`O=C(CCCCCCNC(=O)c1cnc(N(c2ccccc2)c2ccccc2)nc1)NO` [Rocilinostat] displayed a GFP- of 0.75 ± 0.08.
